Values from PubChem BioAssay AID1224826 (NIAID, 2016)
Screen: 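Regulators of Tlr4 signalling leading to Tnf-alpha expression in macrophages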 (primary screen). Cell system: RAW264.7 G9 macrophages from mouse bearing reporters for p65 (GFP) and the Tnf promoter (mCherry). Knock-down reagent: siRNA pool against mouse genes, 100 nM. Time to read-out: 16 h of LPS stimulation, after 2 days of siRNA transfection. Challenge: bacterial lipopolysaccharide (Salmonella minnesota R595), 10 ng/ml. Read-out: 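Nuclear mCherry signal of the Tnf promoter reporter measured by imaging after background removal, scaled to each plate median and turned into robust z-scores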. Direction: Tnf reporter robust z-score: higher = stronger Tnf promoter reporter signal after LPS. Rule for the call: 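Called active when robust z-score is at most -1.3, matching the median of the Tlr4 knock-down control, or over 3; control wells and wells with under 50 cells never active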. Calls: active = Tnf reporter clearly lowered or raised; inactive = no clear change in Tnf reporter.
The whole screen tested about 17,000 reagents; shown is an unselected part. Of all reagents, about 1,110 (6.6%) were called active. 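Active means lowered or raised reporter signal; replicate intensities are raw and not normalised per plate.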 Some reagents were tested in more than one well and are listed for each. Further read-outs or replicates are left out here.

gene symbol | Tnf reporter robust z-score | fewer than 50 cells in well | Outcome
Cavin3 (caveolae associated 3) | -0.68 | enough cells in well | inactive
Abca6 (ATP-binding cassette, sub-family A member 6) | 1.46 | enough cells in well | inactive
Nuak2 (NUAK family, SNF1-like kinase, 2) | 3.03 | enough cells in well | active
Nuak2 (NUAK family, SNF1-like kinase, 2) | – | fewer than 50 cells per well; well left out of calls | inactive
Spdl1 (spindle apparatus coiled-coil protein 1) | – | fewer than 50 cells per well; well left out of calls | inactive
Chsy3 (chondroitin sulfate synthase 3) | – | fewer than 50 cells per well; well left out of calls | inactive
Trmt10c (tRNA methyltransferase 10C, mitochondrial RNase P subunit) | 3.42 | enough cells in well | active
Pcdha4 (protocadherin alpha 4) | 2.44 | enough cells in well | inactive
Pdlim3 (PDZ and LIM domain 3) | 0.5 | enough cells in well | inactive
H2bc8 (H2B clustered histone 8) | – | fewer than 50 cells per well; well left out of calls | inactive
Sstr1 (somatostatin receptor 1) | -0.14 | enough cells in well | inactive
Gnpda2 (glucosamine-6-phosphate deaminase 2) | -0.31 | enough cells in well | inactive
Semp2l2a (SUMO/sentrin specific peptidase 2-like 2A) | -1.35 | enough cells in well | active
Cyp2b13 (cytochrome P450, family 2, subfamily b, polypeptide 13) | 0.67 | enough cells in well | inactive
Ldaf1 (lipid droplet assembly factor 1) | -0.22 | enough cells in well | inactive
Dok4 (docking protein 4) | 1.35 | enough cells in well | inactive
4931429L15Rik (RIKEN cDNA 4931429L15 gene) | – | fewer than 50 cells per well; well left out of calls | inactive
Drc11l (dynein regulatory complex subunit 11 like) | – | fewer than 50 cells per well; well left out of calls | inactive
Smurf1 (SMAD specific E3 ubiquitin protein ligase 1) | – | fewer than 50 cells per well; well left out of calls | inactive
Scaf11 (SR-related CTD-associated factor 11) | -0.18 | enough cells in well | inactive

Next part; the last 5 above are carried over.
gene symbol | Tnf reporter robust z-score | fewer than 50 cells in well | Outcome
Dok4 (docking protein 4) | 1.35 | enough cells in well | inactive
4931429L15Rik (RIKEN cDNA 4931429L15 gene) | – | fewer than 50 cells per well; well left out of calls | inactive
Drc11l (dynein regulatory complex subunit 11 like) | – | fewer than 50 cells per well; well left out of calls | inactive
Smurf1 (SMAD specific E3 ubiquitin protein ligase 1) | – | fewer than 50 cells per well; well left out of calls | inactive
Scaf11 (SR-related CTD-associated factor 11) | -0.18 | enough cells in well | inactive
Rbmxl1 (RNA binding motif protein, X-linked like-1) | 3.2 | enough cells in well | active
Rfx4 (regulatory factor X, 4 (influences HLA class II expression)) | 0.33 | enough cells in well | inactive
H2bc21 (H2B clustered histone 21) | -1.46 | enough cells in well | active
Foxn1 (forkhead box N1) | 0.41 | enough cells in well | inactive
Blk (Blk proto-oncogene, Src family tyrosine kinase) | 0.69 | enough cells in well | inactive
Trmt9b (tRNA methyltransferase 9B) | 1.59 | enough cells in well | inactive
Uchl1 (ubiquitin carboxy-terminal hydrolase L1) | -0.35 | enough cells in well | inactive
Cldn16 (claudin 16) | -1.29 | enough cells in well | inactive
Gml2 (glycosylphosphatidylinositol anchored molecule like 2) | -0.94 | enough cells in well | inactive
Ly6g2 (lymphocyte antigen 6 family member G2) | -0.46 | enough cells in well | inactive
Cdhr1 (cadherin-related family member 1) | -0.37 | enough cells in well | inactive
Rhot1 (ras homolog family member T1) | – | fewer than 50 cells per well; well left out of calls | inactive
Gsta1 (glutathione S-transferase, alpha 1 (Ya)) | 1.22 | enough cells in well | inactive
T2 (brachyury 2) | 4.45 | enough cells in well | active
Slc6a11 | -0.97 | enough cells in well | inactive
Lims2 (LIM and senescent cell antigen like domains 2) | 1.01 | enough cells in well | inactive
Patl2 (protein associated with topoisomerase II homolog 2 (yeast)) | 3.31 | enough cells in well | active
Wdr13 (WD repeat domain 13) | -0.69 | enough cells in well | inactive
Eif2b3 (eukaryotic translation initiation factor 2B, subunit 3) | -0.37 | enough cells in well | inactive
Nectin1 (nectin cell adhesion molecule 1) | 0.2 | enough cells in well | inactive
